Some of the results follow.

The chains behind the UniProt entries cited, without tags or fusion partners. Where a name states a change or a piece, a line headed by the entry shows the natural chain unless it says otherwise.
UniProt A6NNY8: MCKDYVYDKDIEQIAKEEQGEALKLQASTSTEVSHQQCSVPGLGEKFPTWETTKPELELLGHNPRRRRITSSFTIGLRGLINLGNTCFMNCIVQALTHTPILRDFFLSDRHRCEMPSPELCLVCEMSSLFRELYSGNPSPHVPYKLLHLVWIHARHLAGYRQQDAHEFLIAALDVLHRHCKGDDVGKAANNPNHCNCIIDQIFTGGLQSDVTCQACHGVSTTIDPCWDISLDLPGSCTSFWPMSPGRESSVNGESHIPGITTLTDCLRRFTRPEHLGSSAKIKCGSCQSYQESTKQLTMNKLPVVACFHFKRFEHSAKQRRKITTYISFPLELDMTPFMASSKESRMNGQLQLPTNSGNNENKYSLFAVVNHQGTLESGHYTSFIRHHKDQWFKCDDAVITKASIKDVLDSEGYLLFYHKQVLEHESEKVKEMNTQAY
UniProt Q14146: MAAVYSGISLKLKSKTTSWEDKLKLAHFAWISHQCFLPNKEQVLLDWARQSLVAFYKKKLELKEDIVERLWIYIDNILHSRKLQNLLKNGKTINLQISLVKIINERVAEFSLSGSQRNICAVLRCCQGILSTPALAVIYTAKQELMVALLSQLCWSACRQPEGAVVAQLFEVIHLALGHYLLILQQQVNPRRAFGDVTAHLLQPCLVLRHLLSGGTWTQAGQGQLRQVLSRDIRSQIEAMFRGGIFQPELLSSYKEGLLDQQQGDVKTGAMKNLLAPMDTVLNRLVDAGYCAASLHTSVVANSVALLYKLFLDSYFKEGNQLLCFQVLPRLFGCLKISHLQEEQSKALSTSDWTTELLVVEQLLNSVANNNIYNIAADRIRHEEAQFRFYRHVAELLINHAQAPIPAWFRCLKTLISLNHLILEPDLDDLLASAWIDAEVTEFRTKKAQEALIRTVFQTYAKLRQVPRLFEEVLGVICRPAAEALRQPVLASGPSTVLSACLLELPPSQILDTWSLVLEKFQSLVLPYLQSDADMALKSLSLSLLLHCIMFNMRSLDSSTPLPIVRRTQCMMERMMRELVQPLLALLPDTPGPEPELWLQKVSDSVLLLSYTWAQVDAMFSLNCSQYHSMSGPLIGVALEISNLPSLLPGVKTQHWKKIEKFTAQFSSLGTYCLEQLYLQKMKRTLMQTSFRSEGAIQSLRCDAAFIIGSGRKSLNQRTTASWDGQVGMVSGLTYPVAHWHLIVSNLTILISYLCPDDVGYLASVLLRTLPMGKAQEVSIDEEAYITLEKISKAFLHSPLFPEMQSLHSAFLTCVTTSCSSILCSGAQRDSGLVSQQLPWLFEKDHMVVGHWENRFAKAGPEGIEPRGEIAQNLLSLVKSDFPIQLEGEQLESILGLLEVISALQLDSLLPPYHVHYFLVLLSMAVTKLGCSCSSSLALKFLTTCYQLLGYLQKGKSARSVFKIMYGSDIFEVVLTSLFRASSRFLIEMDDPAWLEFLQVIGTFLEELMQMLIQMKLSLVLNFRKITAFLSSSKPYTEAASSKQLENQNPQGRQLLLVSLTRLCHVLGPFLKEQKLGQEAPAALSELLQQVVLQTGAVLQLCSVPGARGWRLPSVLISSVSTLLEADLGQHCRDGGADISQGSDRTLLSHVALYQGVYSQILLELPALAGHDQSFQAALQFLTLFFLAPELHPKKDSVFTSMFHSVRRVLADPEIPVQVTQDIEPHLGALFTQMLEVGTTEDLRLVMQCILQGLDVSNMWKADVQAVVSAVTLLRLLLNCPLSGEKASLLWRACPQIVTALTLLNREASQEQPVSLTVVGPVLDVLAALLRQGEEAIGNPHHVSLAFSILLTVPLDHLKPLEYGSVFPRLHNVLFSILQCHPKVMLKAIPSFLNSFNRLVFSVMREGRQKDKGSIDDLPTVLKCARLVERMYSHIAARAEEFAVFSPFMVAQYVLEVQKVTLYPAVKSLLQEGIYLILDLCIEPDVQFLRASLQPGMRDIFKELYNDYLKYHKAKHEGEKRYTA
UniProt Q9UDW1: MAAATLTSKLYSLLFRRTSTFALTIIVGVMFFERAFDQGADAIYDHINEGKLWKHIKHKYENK
UniProt P13051, whole entry, looked up: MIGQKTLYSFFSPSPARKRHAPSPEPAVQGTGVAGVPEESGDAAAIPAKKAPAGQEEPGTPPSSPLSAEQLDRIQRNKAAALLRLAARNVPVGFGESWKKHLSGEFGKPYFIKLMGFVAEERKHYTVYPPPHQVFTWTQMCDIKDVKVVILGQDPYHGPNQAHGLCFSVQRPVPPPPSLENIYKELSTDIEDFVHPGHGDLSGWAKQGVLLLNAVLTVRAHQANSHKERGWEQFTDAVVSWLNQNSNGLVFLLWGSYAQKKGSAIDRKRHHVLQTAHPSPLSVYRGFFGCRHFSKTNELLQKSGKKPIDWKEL
UniProt O94763, whole entry, looked up: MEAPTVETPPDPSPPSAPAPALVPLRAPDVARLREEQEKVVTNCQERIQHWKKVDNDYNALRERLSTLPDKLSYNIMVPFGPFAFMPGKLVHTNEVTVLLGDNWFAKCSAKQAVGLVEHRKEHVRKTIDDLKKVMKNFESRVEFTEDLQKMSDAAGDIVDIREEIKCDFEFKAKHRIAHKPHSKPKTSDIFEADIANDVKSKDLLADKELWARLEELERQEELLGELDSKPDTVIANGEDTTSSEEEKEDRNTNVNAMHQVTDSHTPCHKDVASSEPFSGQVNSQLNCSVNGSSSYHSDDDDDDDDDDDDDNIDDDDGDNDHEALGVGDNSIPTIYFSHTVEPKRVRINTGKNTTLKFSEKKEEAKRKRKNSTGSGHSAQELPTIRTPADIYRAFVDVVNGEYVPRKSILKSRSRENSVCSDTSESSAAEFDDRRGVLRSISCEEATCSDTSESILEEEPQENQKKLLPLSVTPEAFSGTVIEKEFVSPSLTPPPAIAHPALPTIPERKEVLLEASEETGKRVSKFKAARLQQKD
UniProt O75385: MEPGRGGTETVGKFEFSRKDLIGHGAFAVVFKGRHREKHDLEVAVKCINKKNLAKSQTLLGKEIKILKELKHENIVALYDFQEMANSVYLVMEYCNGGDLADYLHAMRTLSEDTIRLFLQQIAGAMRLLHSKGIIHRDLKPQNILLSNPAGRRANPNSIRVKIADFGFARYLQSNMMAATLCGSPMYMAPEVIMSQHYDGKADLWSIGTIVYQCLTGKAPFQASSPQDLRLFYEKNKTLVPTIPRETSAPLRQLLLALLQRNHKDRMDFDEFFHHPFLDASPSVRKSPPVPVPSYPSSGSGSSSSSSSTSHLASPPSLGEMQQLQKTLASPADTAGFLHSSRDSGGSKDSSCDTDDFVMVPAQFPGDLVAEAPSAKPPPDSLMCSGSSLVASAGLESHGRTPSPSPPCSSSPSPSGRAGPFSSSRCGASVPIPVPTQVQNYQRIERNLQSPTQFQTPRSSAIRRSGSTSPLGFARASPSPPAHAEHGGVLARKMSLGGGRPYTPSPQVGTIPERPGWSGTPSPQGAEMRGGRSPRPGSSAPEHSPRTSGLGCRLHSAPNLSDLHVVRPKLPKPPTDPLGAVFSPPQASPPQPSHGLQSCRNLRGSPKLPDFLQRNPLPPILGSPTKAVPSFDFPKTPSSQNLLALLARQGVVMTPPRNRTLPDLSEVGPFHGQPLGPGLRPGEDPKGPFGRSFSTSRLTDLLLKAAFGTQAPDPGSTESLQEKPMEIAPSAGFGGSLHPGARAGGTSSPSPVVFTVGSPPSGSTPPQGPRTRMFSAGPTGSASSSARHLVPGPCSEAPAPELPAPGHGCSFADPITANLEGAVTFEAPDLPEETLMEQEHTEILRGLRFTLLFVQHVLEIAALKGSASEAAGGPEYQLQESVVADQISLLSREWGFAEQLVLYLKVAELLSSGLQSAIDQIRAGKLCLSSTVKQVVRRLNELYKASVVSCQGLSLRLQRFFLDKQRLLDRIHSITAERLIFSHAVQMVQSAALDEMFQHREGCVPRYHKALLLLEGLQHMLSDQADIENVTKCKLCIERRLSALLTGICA
UniProt P55851: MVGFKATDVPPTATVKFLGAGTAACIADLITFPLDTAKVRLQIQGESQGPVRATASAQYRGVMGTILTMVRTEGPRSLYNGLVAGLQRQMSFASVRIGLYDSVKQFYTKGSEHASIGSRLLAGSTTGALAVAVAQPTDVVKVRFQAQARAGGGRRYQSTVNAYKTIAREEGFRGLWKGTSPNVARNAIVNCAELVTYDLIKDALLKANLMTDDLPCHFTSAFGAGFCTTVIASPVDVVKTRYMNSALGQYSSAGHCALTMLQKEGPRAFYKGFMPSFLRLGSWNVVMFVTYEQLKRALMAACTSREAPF
UniProt Q9NVE5: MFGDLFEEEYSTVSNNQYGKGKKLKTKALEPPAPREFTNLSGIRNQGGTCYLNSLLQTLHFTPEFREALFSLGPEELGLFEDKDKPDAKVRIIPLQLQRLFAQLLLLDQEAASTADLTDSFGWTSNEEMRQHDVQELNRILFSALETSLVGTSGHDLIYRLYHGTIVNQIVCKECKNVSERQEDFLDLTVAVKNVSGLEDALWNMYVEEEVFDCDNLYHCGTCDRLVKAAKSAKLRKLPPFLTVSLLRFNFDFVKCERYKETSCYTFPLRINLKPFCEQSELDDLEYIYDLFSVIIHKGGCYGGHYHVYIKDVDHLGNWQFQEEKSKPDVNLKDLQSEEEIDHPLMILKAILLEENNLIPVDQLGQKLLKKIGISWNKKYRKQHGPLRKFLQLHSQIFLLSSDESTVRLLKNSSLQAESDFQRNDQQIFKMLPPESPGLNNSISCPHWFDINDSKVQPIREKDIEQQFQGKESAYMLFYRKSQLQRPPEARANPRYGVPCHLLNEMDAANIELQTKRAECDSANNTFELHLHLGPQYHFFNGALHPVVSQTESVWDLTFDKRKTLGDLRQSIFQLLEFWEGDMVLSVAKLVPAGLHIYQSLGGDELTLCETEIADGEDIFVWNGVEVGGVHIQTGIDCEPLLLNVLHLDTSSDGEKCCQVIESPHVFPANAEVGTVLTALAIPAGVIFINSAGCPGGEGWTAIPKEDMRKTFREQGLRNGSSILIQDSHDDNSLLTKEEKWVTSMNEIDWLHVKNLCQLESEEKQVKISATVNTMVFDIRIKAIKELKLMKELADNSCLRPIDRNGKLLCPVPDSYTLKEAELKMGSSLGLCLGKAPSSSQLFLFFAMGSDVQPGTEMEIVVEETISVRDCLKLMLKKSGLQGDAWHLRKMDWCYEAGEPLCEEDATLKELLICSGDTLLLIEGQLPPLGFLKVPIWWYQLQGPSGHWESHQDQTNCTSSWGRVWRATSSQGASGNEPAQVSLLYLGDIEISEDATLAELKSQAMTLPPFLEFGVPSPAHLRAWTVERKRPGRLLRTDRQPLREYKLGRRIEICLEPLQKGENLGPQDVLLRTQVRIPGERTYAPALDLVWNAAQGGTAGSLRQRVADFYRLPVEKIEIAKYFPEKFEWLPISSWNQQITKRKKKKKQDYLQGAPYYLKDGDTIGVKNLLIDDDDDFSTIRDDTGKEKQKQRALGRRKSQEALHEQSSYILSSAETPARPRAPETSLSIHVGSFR
UniProt Q92738: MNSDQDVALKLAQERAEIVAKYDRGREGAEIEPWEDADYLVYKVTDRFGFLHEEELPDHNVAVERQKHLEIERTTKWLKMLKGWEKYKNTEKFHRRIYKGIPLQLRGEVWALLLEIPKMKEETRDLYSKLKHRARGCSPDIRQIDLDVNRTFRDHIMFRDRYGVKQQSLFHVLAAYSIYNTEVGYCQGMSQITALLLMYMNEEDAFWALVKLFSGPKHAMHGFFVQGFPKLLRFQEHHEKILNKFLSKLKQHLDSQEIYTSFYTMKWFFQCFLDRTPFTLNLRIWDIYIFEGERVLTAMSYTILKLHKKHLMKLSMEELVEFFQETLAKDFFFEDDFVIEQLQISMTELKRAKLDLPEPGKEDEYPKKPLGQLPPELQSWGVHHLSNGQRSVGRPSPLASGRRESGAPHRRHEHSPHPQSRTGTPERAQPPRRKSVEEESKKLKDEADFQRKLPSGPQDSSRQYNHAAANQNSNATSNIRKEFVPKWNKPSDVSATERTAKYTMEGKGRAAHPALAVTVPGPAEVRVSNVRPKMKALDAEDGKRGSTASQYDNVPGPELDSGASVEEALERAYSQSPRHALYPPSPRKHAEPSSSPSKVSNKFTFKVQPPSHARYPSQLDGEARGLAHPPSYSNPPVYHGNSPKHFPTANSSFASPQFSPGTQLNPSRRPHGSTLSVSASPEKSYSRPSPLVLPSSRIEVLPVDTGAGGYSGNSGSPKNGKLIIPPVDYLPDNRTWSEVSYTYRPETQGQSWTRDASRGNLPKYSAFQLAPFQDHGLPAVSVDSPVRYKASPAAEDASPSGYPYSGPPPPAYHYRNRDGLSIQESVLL
UniProt Q9Y3A2: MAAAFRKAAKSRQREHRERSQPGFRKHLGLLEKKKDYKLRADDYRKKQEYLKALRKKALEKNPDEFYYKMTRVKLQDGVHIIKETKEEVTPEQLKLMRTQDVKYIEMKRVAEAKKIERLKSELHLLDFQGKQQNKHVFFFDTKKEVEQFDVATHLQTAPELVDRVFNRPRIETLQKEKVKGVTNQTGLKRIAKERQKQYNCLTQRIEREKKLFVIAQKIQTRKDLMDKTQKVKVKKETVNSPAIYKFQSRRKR

Compound in one experiment: C1=CC=C(C=C1)C2=NC(=C(N2)C3=CC=NC=C3)C4=CC(=C(C=C4)Cl)O
As to the kind of experiment: log2 fold change, soluble protein after heating vs DMSO (PISA); higher = thermal stabilisation; K562 lysate, 10 uM; active = over 0.2 and 3.5 SD of the protein, either way, in both replicates (recomputed). The method, boiled down: (§1)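 Values give the log-two fold change in thermal stability against solvent controls, from duplicates. Crude K562 extract at 1 mg/mL protein, made by dounce homogenisation in PBS pH 7.4 with 1 mM MgCl2, was treated with 10 μM compound for 30 min. After 3 min heating across 48°C-58°C, aliquots were pooled, adjusted to 0.5% NP-40 at 4°C and centrifuged at 21,000xg for 90 min. The supernatant was measured by TMTpro 16plex LC-MS/MS with channel sums equalised.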
With USB1 (UniProt Q9BQ65), the log2 fold change was inactive: 0.092.
Same read-out and setting: the value for UTP23 (UniProt Q9BRU9) was inactive: -0.079; that for USP27X (UniProt A6NNY8) was inactive: -0.139.
On the same count and under the same terms, the value for URB2 (UniProt Q14146) was inactive: -0.007; that for USP12 (UniProt O75317) was inactive: 0.027.
The same measure, in the same setting: the value for USP36 (UniProt Q9P275) was inactive: 0.089.
Turning to VGLL4 isoform 4 (UniProt Q14135), the log2 fold change is inactive: 0.016.
On the same count and under the same terms, then UQCR10 (UniProt Q9UDW1), with inactive: -0.013; and UNG (UniProt P13051), with inactive: -0.074; and UPF3A (UniProt Q9H1J1), with inactive: -0.062.
Take USP30 (UniProt Q70CQ3): the log2 fold change is inactive: 0.074.
Turning to UNC119 (UniProt Q13432), the log2 fold change was inactive: -0.059.
As for URGCP (UniProt Q8TCY9), the log2 fold change is inactive: -0.038.
The same measure, in the same setting: then USP38 (UniProt Q8NB14), with inactive: 0.01; and URI1 isoform 4 (UniProt O94763), with inactive: 0.018.
On the same count and under the same terms, then VANGL2 (UniProt Q9ULK5), with inactive: -0.038; and VCX3B (UniProt Q9H321), with inactive: -0.051; and ULK1 (UniProt O75385), with inactive: 0.13.
The same measure, in the same setting: then UCP2 (UniProt P55851), with inactive: 0.011.
As for VASN (UniProt Q6EMK4), the log2 fold change is inactive: -0.191.
On the same count and under the same terms, then USP40 isoform 3 (UniProt Q9NVE5), with inactive: 0.203; and UROD (UniProt H0Y5R6), with inactive: -0.184; and USP20 (UniProt Q9Y2K6), with inactive: -0.052.
As to UMAD1 (UniProt C9J7I0), the log2 fold change is inactive: -0.045.
Still for that read-out and setting: the value for USP33 (UniProt Q8TEY7) was inactive: -0.025.

Compound in another experiment: C1=CC=C2C(=C1)C3=NNC4=CC=CC(=C43)C2=O
The description is as above. The method, boiled down: as §1
Regarding USB1 (UniProt Q9BQ65), the log2 fold change was inactive: 0.106.
As to VAV2 (UniProt P52735), the log2 fold change is inactive: -0.043.
With URB2 (UniProt Q14146), the log2 fold change is inactive: -0.061.
Still for that read-out and setting: then USP6NL isoform 2 (UniProt Q92738), with inactive: -0.164.
In the case of USP12 (UniProt O75317), the log2 fold change was inactive: -0.053.
On the same count and under the same terms, then USP36 (UniProt Q9P275), with inactive: -0.126.
Regarding UHRF2 (UniProt Q96PU4), the log2 fold change was inactive: -0.211.
In the case of UQCR10 (UniProt Q9UDW1), the log2 fold change was inactive: -0.026.
Still for that read-out and setting: the value for UNKL (UniProt E9PDK2) was inactive: -0.122; that for URGCP (UniProt Q8TCY9) was inactive: 0.051.
With USP38 (UniProt Q8NB14), the log2 fold change was inactive: -0.125.
For USP37 (UniProt Q86T82), the log2 fold change was inactive: -0.019.
As to ULK1 (UniProt O75385), the log2 fold change is inactive: -0.023.
For the target UCP2 (UniProt P55851), the log2 fold change was inactive: -0.025.
Still for that read-out and setting: the value for UTP11 (UniProt Q9Y3A2) was inactive: 0.059; that for VGF (UniProt O15240) was inactive: -0.12.
On the same count and under the same terms, then UROD (UniProt H0Y5R6), with inactive: 0.097.

The record behind these values is the supplement of paper PMC10849652.
